Data taken from PubChem BioAssay AID1159506, deposited by NCATS (2015).

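Genome-wide siRNA knockdown in TC32 Ewing sarcoma cells, comparing luciferase light from an NR0B1-promoter reporter with a CMV-promoter reporter 48 hours after transfection.
Each siRNA was applied at 20 nM.
A z-score of the log NR0B1-over-CMV signal, less the median of siRNAs with the same seed; more negative means a stronger specific loss of the NR0B1 reporter.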

This is part of the screen; most of the strongest results are not listed here.
Sequences are the guide (antisense) strand, without overhang.

- UUUUAAACCAGUCCAGGAG against BRAT1 : seed-corrected z-score -0.7246
- UCCAGUAGGUCUAUCAUCC against INO80 : seed-corrected z-score 0.05705
- UAGUUCGUAAAAUUGCUCC against ZC3H7A : seed-corrected z-score -0.3875
- AUCGGUUAUAUAAAACCUC against SMC6 : seed-corrected z-score -0.4086
- UGAGUAGAGGAGGAACUGA against KIAA2013 : seed-corrected z-score -1.672
- UAAGUUAUUGAGCUUGUCC against RPS25P6 : seed-corrected z-score -0.2913
- UUUGCAGAGGUGAUCUUGG against PNRC1 : seed-corrected z-score 0.2503
- UCAUAGAACCGACACUUGG against OSTC : seed-corrected z-score -1.008
- AACUUGGUAAACUUAAGGC against SUPT7L : seed-corrected z-score -0.5816
- UGACCAGUGACGAUGAGCC against HMCN2 : seed-corrected z-score 0.6605
- AAUGCUUUGUCUAAGCUCU against C4orf50 : seed-corrected z-score -0.4371
- UCUUGAUAAGCUUCACUUC against FTL : seed-corrected z-score 0.6379
- UGUUCGAAUAUUCAUUACC against MAN1A1 : seed-corrected z-score 0.7672
- UAUCCUUACUAGACCAUCC against DIMT1 : seed-corrected z-score 0.1319
- UAGGGAGAGACGAUUCUGU against LY6G6C : seed-corrected z-score -1.52
- UAAGUGUAUAUCAGUCUCC against GDPD4 : seed-corrected z-score 0.1982
- UUCCGGGUAGUUACUUUCC against N4BP2 : seed-corrected z-score -0.3305
- UACAGGUCAAUCAUGUACU against GDF2 : seed-corrected z-score -0.4588
- AAACUGUCCACUGCAGCCU against ZBTB16 : seed-corrected z-score -1.728
- UUUGAUUCAACUCAUGCGG against IFNA21 : seed-corrected z-score 1.082
- UUAUAGCCGAGUCAAGGUC against ATAD1 : seed-corrected z-score 0.3322
- UAUUUAUCAGAACUAAACC against DENND3 : seed-corrected z-score 1.21
- UUGAAGAUAGUCAUUCUCG against STK32C : seed-corrected z-score 0.4095
- UUCACGAACCUGAAUAUCC against EIF4A3 : seed-corrected z-score -1.44
- AGUCUAACUGGUCAAGUUC against GTF3C3 : seed-corrected z-score 0.8339
- UUGUUGCAGAGAUAAGACC against LYPD4 : seed-corrected z-score 0.04409
- AGGUGUAUCAAUCAUAAGC against ATP11B : seed-corrected z-score -1.037
- UUGGUUCAUAGGGUUUGGG against PRELID3BP10 : seed-corrected z-score -1.567
- UUAUCAAACCGGAAGUCCG against ZNF511 : seed-corrected z-score 0.4116
- UGGGAGAUUUCUACGUUGC against TMEM131 : seed-corrected z-score -0.255
- UGUUUGCCGAGAGUUUUUG against OR5D14 : seed-corrected z-score -1.155
- UGCGAUGUAAGGGUGAGGG against SPHK2 : seed-corrected z-score -1.256

The last 2 entries again:

strand,gene,seed-corrected z-score
UGUUUGCCGAGAGUUUUUG,OR5D14,-1.155
UGCGAUGUAAGGGUGAGGG,SPHK2,-1.256